Data as given in article PMC6273065, “Synthesis, Molecular Modelling and Biological Evaluation of Novel Heterodimeric, Multiple Ligands Targeting Cholinesterases and Amyloid Beta” (Molecules, 2016).

Protein sequences, listed by entry. Tags and fused reporters are not part of them. Residues count along the entry.
UniProt P05067, 672-713: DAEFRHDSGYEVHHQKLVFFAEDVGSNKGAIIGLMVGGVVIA

Biological target: T1, Aβ1–42 (Homo sapiens, UniProt P05067)
T1 construct: Recombinant human HFIP-pretreated Aβ1–42 peptide; purchased Merck Millipore Lot number 2387442
Assay: Thioflavin-T fluorometric assay of self-induced Aβ1–42 aggregation
Type: biochemical
Conditions: read-out: Aβ1–42 Aggreg. % of inhibition
From the text: Mechanisms of Aβ aggregation remain unclear. Besides the self-induced assembly of Aβ, several other factors affect its aggregation, including metal ions, AChE [45], and oxidative stress. Therefore, we evaluated our compounds using the most versatile and commonly used Aβ1–42 aggregation Thioflavin T assay. Seven structurally diverse compounds were selected (one from each subseries) to test their ability to inhibit self-induced Aβ1–42 aggregation.
Thioflavin-T (ThT) fluorometric assay was performed to investigate the effect of the test compounds on the self-aggregation of Aβ1–42. […] Each sample was prepared in quadruplicate, and the DMSO was always at 3%. To quantify amyloid fibril formation, the ThT fluorescence was measured through the bottom of the plate every 180 s at an excitation wavelength of 440 nm and emission wavelength of 490 nm, with the medium continuously shaking between measurements using a 96-well microplate reader (Synergy™ H4, BioTek Instruments, Inc., Winooski, VT, USA). […] The fluorescence intensities at the plateau in the absence and presence of the test compounds were averaged, and the average fluorescence of the corresponding wells at t = 0 h was subtracted.

SMILES: COc1cc2c(cc1OC)C(=O)C(CC1CCN(Cc3ccccc3)CC1)C2 (stereo not shown) [Donepezil, reference compound]
- inhibition at 10 µM: 11.5 ± 4.51%
